Data as given in PubChem BioAssay AID1259425 (University of Nebraska Medical Center, 2018)
Aim: 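Find knockdowns that reproduce the gene expression pattern seen when KSR1 is lost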 (primary screen). System: HCT116 human colon cancer cells. Knock-down reagent: siRNA pool against human genes, 50 nM siRNA. Read-out: 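mRNA of six signature genes measured together by branched-DNA assay after 50 nM siRNA pool, blank removed, divided by geometric mean of two housekeeping genes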. Direction: BNIP3L mRNA: higher = more BNIP3L transcript after knockdown; NDRG1 mRNA: higher = more NDRG1 transcript after knockdown.
Shown is an unselected part of about 14,000 reagents. Further read-outs or replicates are left out here. Reagent sequences are not shown. The record does not give: the time to read-out.

After knock-down of ATRX, the screen gave BNIP3L mRNA, set 1 = 0.136; NDRG1 mRNA, set 1 = 0.162. APOC3 gave BNIP3L mRNA, set 1 = 0.138; NDRG1 mRNA, set 1 = 0.113. Knock-down of SCEL gave: BNIP3L mRNA, set 1 = 0.0941; NDRG1 mRNA, set 1 = 0.278. Knock-down of SLC16A4 resulted in: BNIP3L mRNA, set 1 = 0.111; NDRG1 mRNA, set 1 = 0.374. For POLR2H, the entry reads BNIP3L mRNA, set 1 = 0.0882; NDRG1 mRNA, set 1 = 0.617. With knock-down of ILRUN, the record shows BNIP3L mRNA, set 1 = 0.173; NDRG1 mRNA, set 1 = 0.138.

Knock-down of KRTAP9-2 gave: BNIP3L mRNA, set 1 = 0.153; NDRG1 mRNA, set 1 = 0.386. For HLA-G, the values are BNIP3L mRNA, set 1 = 0.0861; NDRG1 mRNA, set 1 = 0.15. After knock-down of PLEKHH1 the results were BNIP3L mRNA, set 1 = 0.255; NDRG1 mRNA, set 1 = 0.493. After knock-down of MMP3, the screen gave BNIP3L mRNA, set 1 = 0.135; NDRG1 mRNA, set 1 = 0.212. After knock-down of PCDHB16 the results were BNIP3L mRNA, set 1 = 1.43; NDRG1 mRNA, set 1 = 1.83. For TTC29 the deposit lists BNIP3L mRNA, set 1 = 0.127; NDRG1 mRNA, set 1 = 0.185.

With knock-down of WDR83OS the results were BNIP3L mRNA, set 1 = 0.0495; NDRG1 mRNA, set 1 = 0.204. Depletion of F12 resulted in: BNIP3L mRNA, set 1 = 0.28; NDRG1 mRNA, set 1 = 0.185. HMGB1 gave BNIP3L mRNA, set 1 = 0.145; NDRG1 mRNA, set 1 = 0.14. Knock-down of SULT1C2 resulted in: BNIP3L mRNA, set 1 = 0.063; NDRG1 mRNA, set 1 = 0.115. For SEZ6L, the entry reads BNIP3L mRNA, set 1 = 0.224; NDRG1 mRNA, set 1 = 0.125. With knock-down of GPR87, the screen gave BNIP3L mRNA, set 1 = 0.0667; NDRG1 mRNA, set 1 = 0.179.

After knock-down of ADGRG1, the record shows BNIP3L mRNA, set 1 = 0.2; NDRG1 mRNA, set 1 = 0.0956. With knock-down of ARHGAP9, the record shows BNIP3L mRNA, set 1 = 0.154; NDRG1 mRNA, set 1 = 0.846. Depletion of CACNA1F came out at: BNIP3L mRNA, set 1 = 0.194; NDRG1 mRNA, set 1 = 0.146. Silencing of SLC29A3 came out at: BNIP3L mRNA, set 1 = 0.128; NDRG1 mRNA, set 1 = 0.222. Knock-down of SLC39A9 gave: BNIP3L mRNA, set 1 = 0.0655; NDRG1 mRNA, set 1 = 0.289. QSER1 scored BNIP3L mRNA, set 1 = 0.0543; NDRG1 mRNA, set 1 = 0.257.

For THRSP, the values are BNIP3L mRNA, set 1 = 0.0214; NDRG1 mRNA, set 1 = 0.0902. FAN1 showed BNIP3L mRNA, set 1 = 0.22; NDRG1 mRNA, set 1 = 0.286. LECT2 gave BNIP3L mRNA, set 1 = 0.107; NDRG1 mRNA, set 1 = 0.0989. Depletion of RTN4RL2 gave: BNIP3L mRNA, set 1 = 0.207; NDRG1 mRNA, set 1 = 0.887.
